Experimental data published in PubChem BioAssay AID2015 (National Center for Advancing Translational Sciences (NCATS), 2009).
Inconclusive results, whose numbers are uncertain, are shown with a selection of clear calls. Potencies beside an inconclusive call are fits to weak or partial responses and may not hold up. Activity calls are given as the source filed them. The call rests on the fitted dose curve; in most records, active means well fitted inhibition curve with a large enough effect; inconclusive means small, poorly fitted or top-dose-only effect; inactive means flat fitted curve, though single readings scatter.

Amino acid sequences for entries named in this document (tags omitted). A change or cut given only in a name is not applied to a line headed by its entry.
UniProt P51570: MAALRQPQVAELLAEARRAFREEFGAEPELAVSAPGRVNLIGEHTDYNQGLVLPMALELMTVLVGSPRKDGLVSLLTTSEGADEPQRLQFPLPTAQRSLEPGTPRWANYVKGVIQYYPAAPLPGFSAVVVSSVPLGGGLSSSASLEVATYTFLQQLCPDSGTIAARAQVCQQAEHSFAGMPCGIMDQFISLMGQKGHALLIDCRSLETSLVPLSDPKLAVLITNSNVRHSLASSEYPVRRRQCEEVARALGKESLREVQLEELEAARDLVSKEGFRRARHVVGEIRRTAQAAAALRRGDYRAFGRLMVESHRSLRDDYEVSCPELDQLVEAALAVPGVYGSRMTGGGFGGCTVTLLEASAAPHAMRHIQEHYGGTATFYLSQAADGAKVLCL

Molecular target: Galactokinase (Homo sapiens) (UniProt P51570)
Test: Confirmation Assay for Inhibitors of Human Galactokinase (GALK)
Conditions: purified GALK, Kinase-Glo ATP depletion luminescence; series mostly up to 115 µM
Text: NIH Molecular Libraries Probe Production Centers Network [MLPCN] NIH Chemical Genomics Center [NCGC] MLPCN Grant: R03 MH085689-01 Assay Submitter (PI): Kent Lai (University of Utah School of Medicine, 50 N Mario Capecchi Drive, Salt Lake City, UT 84132) NCGC Assay Overview Inherited deficiency of galactose-1-phosphate uridyltransferase (GALT) can result in a potentially lethal disorder called Classic Galactosemia (OMIM 230400). Several lines of evidence indicate that an elevated level of galactose-1-phosphate (gal-1-p), the product of galactokinase (GALK), is a major, if not sole, pathogenic mechanism in patients with classic galactosemia. Therefore, finding inhibitors of GALK is a potential novel therapy for this inherent metabolic disease and is the long term goal of this project. Active compounds observed in the qHTS GALK assay (AID: 1868) were cherry picked and re-screened for validation. GALK (provided by Kent Lai) was assayed using ATP and D-(+)-Galactose (Sigma-Aldrich cat# G0750) as substrates. Promega Kinase-Glo Plus (cat# V3774) technology was used to detect the residual ATP following kinetic reaction. Briefly, the Kinase-Glo Plus contains Ultra-Glo [1] luciferase and D-luciferin which generates a bioluminescence signal from the remaining ATP. Kinase reactions with and without GALK were used as negative and positive controls together with Protein Tyrosine Phosphatase CD45 inhibitor (EMD Bioscience cat# 540215) which is shown to inhibit GALK activity.
NCGC Assay Protocol Summary: Three uL/well of ATP-buffer solution (35 uM ATP, 20mM HEPES pH8.0, 5 mM MgCl2, 60 mM NaCl, 1 mM DTT, 0.01% BSA final concentration) was dispensed into 1536-well, assay plates (Greiner, solid white medium-binding plates) with Aurora Discovery BioRAPTR Flying Reagent Dispenser (FRD; Beckton-Dickenson). Compound and control solution (23 nL) was transferred to the assay plate using the Kalypsys 1536-pin tool apparatus. One uL/well GALK-galactose solution (5 nM GALK, 100 uM galactose, 20 mM HEPES pH8.0, 5 mM MgCl2, 60 mM NaCl, 1 mM DTT, 0.01% BSA final concentration) was then added using the FRD yielding a total kinase reaction volume of 4 uL/ well. After 1 hour of room temperature incubation, 4 uL Kinase-Glo Plus reagent was added for a final assay volume of 8 uL/well. Luminescence was detected with the ViewLux plate reader (Perkin Elmer, Waltham, MA) after 2 min incubation using a 1 sec exposure time and 2x binning.

SMILES	Potency
COc1ccc(-n2cc(-c3ccccc3)c3c(N4CCN(CCO)CC4)ncnc32)cc1	inactive
O=C(CSCc1ccccc1)N1CCN(S(=O)(=O)c2ccc(F)cc2)CC1	inactive
CCOC(=O)C1(Cc2cccc(F)c2)CCN(C(=O)COC)CC1	inactive
Cc1nc(NS(=O)(=O)c2ccc(Cl)s2)c2c3c(sc2n1)CCCC3	inconclusive: 37.5 µM [falling, partial curve]
CC1=C(C(N)=O)C(c2cccs2)n2nc(-c3cccc(Cl)c3)nc2N1 (stereo not given)	inconclusive: 18.8 µM [falling, full curve]
N#C/C(=C(/O)c1cc2ccccc2o1)c1nc2ccccc2s1	inconclusive: 13.3 µM [falling, full curve]
COC(=O)c1ccc(CSc2ccc3nnc(-c4ccccn4)n3n2)o1	inactive
O=C(O)CCc1nnc(SCC(=O)Nc2ccc(Cl)c(C(F)(F)F)c2)[nH]c1=O	inconclusive: 33.5 µM [falling, partial curve]
O=C1ON=C(c2ccccc2)/C1=C/c1ccc(O)c(O)c1	inconclusive: 23.7 µM [falling, full curve]
CC(=O)c1ccc(NC(=S)Nc2cccc3cnccc23)cc1	inconclusive: 14.9 µM [falling, full curve]
O=S(=O)(NCc1cccs1)c1ccc(Br)s1	inactive
NS(=O)(=O)c1ccc(NC(=S)NNC(=O)c2ccc(Br)o2)cc1	inconclusive: 47.3 µM [falling, partial curve]
CC(C)OC(=O)C(C(=O)C(F)(F)F)c1cc(NS(=O)(=O)c2ccc3ccccc3c2)c2ccccc2c1O (stereo not given)	inconclusive: 59.5 µM [falling, single point]
COc1cccc2cc(-c3cc(=O)oc4cc(C)c(O)cc34)oc12	inactive
C=CCN1C(=O)/C(=C/c2ccc(OC(C)=O)c(OCC)c2[N+](=O)[O-])SC1=S	inconclusive: 66.8 µM [falling, single point]
COC1=C(N)C(=O)c2nc(-c3nc(C(=O)O)c(C)c(-c4ccc(OC)c(OC)c4O)c3N)ccc2C1=O	inconclusive: 1.33 µM [falling, full curve]
COc1ccc2cc(C(N)=O)c(=Nc3ccc(C)cc3)oc2c1	inactive
NS(=O)(=O)c1ccc(NC2=CC(=O)C(=O)c3ccccc32)cc1	active: 14.9 µM
CCOc1ccc2[nH]c(=O)c(C(c3nnnn3Cc3ccco3)N3CCN(C)CC3)cc2c1 (stereo not given)	inactive
Cc1ccc(C)c(CN2C(=O)CSc3ccc(C(=O)NCCN4CCOCC4)cc32)c1	inactive

Structures above with an aryl thioether with sulfur outside any ring:
SMILES	Potency
COC(=O)c1ccc(CSc2ccc3nnc(-c4ccccn4)n3n2)o1	inactive
O=C(O)CCc1nnc(SCC(=O)Nc2ccc(Cl)c(C(F)(F)F)c2)[nH]c1=O	inconclusive: 33.5 µM [falling, partial curve]

(continued)

SMILES	Potency
O=C1Nc2ccc([N+](=O)[O-])cc2C1=Nc1cccc(CO)c1	inconclusive: 66.8 µM [falling, single point]
COc1ccc(-n2nnc3c(=O)n(CC(=O)N4CCC(C)CC4)cnc32)cc1	inactive
Cc1ccc(S(=O)(=O)Oc2ccc(/C=C3/C(=N)N4C(=NC3=O)SN=C4S(C)(=O)=O)cc2)cc1	active: 29.8 µM
Cc1nn(Cc2noc(C(=O)NCC3CCCO3)n2)c(C)c1Br (stereo not given)	inactive
CCOc1cc(/C=C2\C(=O)ON=C2c2ccccc2)cc(Br)c1O	inconclusive: 26.6 µM [falling, partial curve]
Cc1c(C(=O)N2CCCC2)sc(NC(=O)c2ccc(Cl)cc2)c1C#N	inconclusive: 29.8 µM [falling, partial curve]
CCN1CCN(CCNC(=O)c2ccc3nc(-c4cccc(C)c4)c(-c4cccc(C)c4)nc3c2)CC1	inconclusive: 42.1 µM [falling, partial curve, poor fit]
O=C(O)c1cccc(S(=O)(=O)N2CCC(n3nnc4cc(C(F)(F)F)ccc43)CC2)c1	inconclusive: 21.1 µM [falling, full curve]
CC1(C)CC(=O)C2=C(C1)NC(Nc1nc3ccccc3o1)=NC21CCCC1	inconclusive: 16.8 µM [falling, full curve]
O=C1/C(=C\c2ccc(O)c(O)c2)C(c2ccccc2)=NN1c1ccccc1	inconclusive: 37.5 µM [falling, partial curve]
O=C1C=C(N(CCO)Cc2ccccc2)c2ccccc2C1=O	active: 11.9 µM
C[C@H](NC(=O)C1CCC(CNC(=O)[C@@H]2CCCN2C(=O)OC(C)(C)C)CC1)C(=O)O (stereo not given in full)	inactive
COCc1cc(CN2CCCC2)c(O)c2ncccc12	inactive
COC(=O)c1oc2ccccc2c1NC(=O)/C=C/C(=O)O	inactive
Cc1ccc(F)c(NC(=O)/C(C#N)=C(\O)c2ccc(C(C)(C)C)cc2)c1	active: 33.5 µM
O=C1OC(C(=O)O)Cc2ccccc21 (stereo not given)	inactive
N#C/C(=C(/O)COc1ccc(Cl)cc1)c1nc2ccccc2s1	inconclusive: 16.8 µM [falling, full curve]
CCOC(=O)/C=C(\C)Sc1cc(O)c2ccccc2c1O	active: 29.8 µM
O=C(O)c1ccc(NC2=C/C(=N/S(=O)(=O)c3ccccc3)c3ccccc3C2=O)cc1	inconclusive: 7.49 µM [falling, full curve]
Cc1cccc(CNc2ncnc3ccc(-c4ccoc4)cc23)c1	inconclusive: 47.3 µM [falling, partial curve]

2 neighbouring compounds out of the list so far, for reference:
SMILES	Potency
COCc1cc(CN2CCCC2)c(O)c2ncccc12	inactive
COC(=O)c1oc2ccccc2c1NC(=O)/C=C/C(=O)O	inactive
